Source: ChEMBL document CHEMBL3988442, “University of Dundee, Small-Polar-MMV Screening Library” (2021).

By UniProt entry, the sequences of proteins in these tests, tags left out.
UniProt E9BF75, entry or part of it: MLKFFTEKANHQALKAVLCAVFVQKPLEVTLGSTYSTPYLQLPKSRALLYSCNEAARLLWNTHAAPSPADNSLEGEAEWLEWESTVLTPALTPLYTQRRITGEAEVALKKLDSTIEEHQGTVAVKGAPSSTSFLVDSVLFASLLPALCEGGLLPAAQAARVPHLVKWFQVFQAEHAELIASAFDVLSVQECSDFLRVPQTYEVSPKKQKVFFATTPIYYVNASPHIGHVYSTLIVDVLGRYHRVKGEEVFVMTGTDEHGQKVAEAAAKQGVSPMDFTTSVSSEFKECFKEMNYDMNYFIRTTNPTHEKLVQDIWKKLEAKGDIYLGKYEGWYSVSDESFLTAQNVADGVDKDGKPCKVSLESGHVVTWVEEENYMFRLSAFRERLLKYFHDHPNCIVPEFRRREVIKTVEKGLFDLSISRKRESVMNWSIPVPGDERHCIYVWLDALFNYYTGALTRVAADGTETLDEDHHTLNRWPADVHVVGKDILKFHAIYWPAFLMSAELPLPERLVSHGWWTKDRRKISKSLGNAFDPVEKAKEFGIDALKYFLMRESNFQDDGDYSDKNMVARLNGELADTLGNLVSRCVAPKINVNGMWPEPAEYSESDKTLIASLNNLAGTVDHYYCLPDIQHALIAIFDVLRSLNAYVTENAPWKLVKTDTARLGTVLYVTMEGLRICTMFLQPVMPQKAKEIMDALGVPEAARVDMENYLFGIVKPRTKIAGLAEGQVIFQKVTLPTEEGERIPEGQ

Results are percentages, as filed.
The controls that fix the scale are not given in the record; negative values are as filed.
This is an unselected part of the compounds tested.

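Methionyl-tRNA synthetase (putative), Leishmania donovani (UniProt E9BF75). Primary screen of methionyl-tRNA synthetase; the read-out is not stated. The test concentration is not given. Values are per cent inhibition. Of about 68,000 compounds tested this way, about 24 (0.035%) reached 50% or more in at least one test.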

| Compound | inhibition |
|---|---|
| `Cc1ccc(-c2cc(CNC(=O)N3CCCN(C)CC3)on2)cc1` | 25.7% |
| `Cc1ccc(C(=O)N2CCC3(CC2)COC(COc2ccccn2)C3)o1` (stereo not given) | 16.74% |
| `O=C(O)c1csc(S(=O)(=O)Nc2cccc(OCC(F)(F)F)c2)c1` | 7.311% |
| `CCc1cnc(CNc2ccc(C(=O)N3CCCC(C)C3)cc2C)o1` (stereo not given) | 11.74% |
| `CC(=O)c1cccc(NC(=O)Cn2nc(-c3cccs3)oc2=O)c1` | 6.425% |
| `COc1ccc(CNC(=O)Nc2cccnc2N2CCCC2)cc1OC` | 13.8% |
| `O=S(=O)(c1cccc(F)c1)N1C[C@@H]2CC[C@H](C1)N(Cc1ccccc1)C2` | 18.13% |
| `CN(Cc1ccccc1)S(=O)(=O)N1C[C@@H](C(=O)O)[C@H](C2CC2)C1` | 3.672% |
| `CCOc1ccc(NC(=O)N(CCC#N)Cc2ccccn2)cc1F` | -2.899% |
| `CN(C)S(=O)(=O)N1CCC2(CC1)CC(OCC1CC1)CO2` (stereo not given) | 10.22% |
| `CN1CCOC(CNCc2csc(C3CCCCC3)n2)C1` (stereo not given) | 20.45% |
| `COC(=O)c1ccc(CN2CCC(c3noc(C)n3)CC2)s1` | 24.36% |
| `CN(CCCn1cnc2c(N)ncnc21)Cc1ccccc1` | 20.87% |
| `CC(=O)N1CCC(N2CCN(Cc3ccc(C)o3)C(CCO)C2)CC1` (stereo not given) | 9.524% |
| `CCOC(=O)NC(C(=O)NCc1ccc(N2CCCCC2)nc1)C(C)C` (stereo not given) | 9.804% |
| `NC(=O)CN1CCC(C(=O)NCCc2nc(-c3ccccc3)cs2)CC1` | -1.446% |
| `CCC1CN(C(=O)c2csc(-c3cnn(C)c3)n2)CCO1` (stereo not given) | -5.072% |
| `c1nc2c(c(N3CCOC(Cn4cncn4)C3)n1)CCC2` (stereo not given) | 11.98% |
| `CC1(C)CN(C(=O)c2ccccc2-n2cncn2)CC1(C)O` (stereo not given) | 8.075% |
| `Cc1ccc(OCC(=O)N2CCN[C@H]3CS(=O)(=O)C[C@H]32)cn1` | 9.253% |
| `Cc1noc(C(C)C)c1C(=O)NCc1ccc(N(C)C)c(F)c1` | 20.23% |
| `Cc1noc(CS(=O)(=O)C/C=C/c2ccccc2)n1` | 4.53% |
| `Cc1cc(C)c2c(c1)C(NCc1c(C)nn(C)c1N(C)C)CCO2` (stereo not given) | 18.58% |
| `CC(c1nc(C2CC2)no1)N1CCC(NS(=O)(=O)c2cccs2)CC1` (stereo not given) | -1.882% |
| `O=C(c1ccsc1)N1CCc2c(CNc3nccs3)n[nH]c2C1` | 10.75% |
| `CCOCC1CC2(CCN(C(=O)c3cscn3)CC2)CO1` (stereo not given) | 8.497% |
| `CNC(=O)c1cn2cc(-c3cccc(Cl)c3)n(CC=C(C)C)c(=O)c2n1` | 16.03% |
| `CC(C)NC(=O)C1(Cc2ccccc2-c2ccccc2)CCCNC1` (stereo not given) | 15.7% |
| `CN(Cc1cccc(F)c1)C(=O)CN1CCOC(Cn2cncn2)C1` (stereo not given) | 15.49% |
| `CC(=O)N(C)CCc1nc(-c2cc(C(N)=O)co2)cs1` | 18.56% |
| `Cc1oncc1C(=O)N1CCC2(CCN(Cc3ccccn3)C2=O)C1` (stereo not given) | 10.5% |
| `O=C(c1ccncc1)N1CCC2(CC1)CCN(Cc1ccccn1)C2=O` | 5% |
| `CCC(C)N1CCC(Oc2ccc(C(=O)NCCN(C)C)cc2Cl)CC1` (stereo not given) | 4.27% |
| `CC(C)(CO)CCCNC(=O)NC1(C)Cc2ccccc2C1` | 9.657% |
| `Cc1cc(C)c(CNC(=O)NCc2ccncc2)c(=O)[nH]1` | 22.91% |
| `CCS(=O)(=O)NCc1cc(Br)c(OC)c(OC)c1` | 14.34% |
| `Cn1cc(CN2CCC(c3ncc(Cl)cc3S(C)(=O)=O)CC2)cn1` | 9.884% |
| `Cc1nc(C2CCCN2C(=O)c2cc3c(s2)CCCC3)no1` (stereo not given) | 13.27% |
| `CCc1ccc(C(=O)O)cc1S(=O)(=O)Nc1ccc(F)c(C#N)c1` | 6.536% |
| `CN(Cc1noc(C(C)(C)C)n1)CC1CCN(CCO)CC1` | 16.3% |
| `Cc1cccc(OCCCNC(=O)NC(C)c2nncn2C)c1` (stereo not given) | 9.278% |
| `Cc1cccc(C(C(=O)N2CC(c3ccncc3)C2)N(C)C)c1` (stereo not given) | 9.61% |
| `Cc1cc(C)n(-c2ccc(C(=O)NCC(CO)Cc3cccs3)cc2)n1` (stereo not given) | 20.1% |
| `Cc1cccc(-c2nc(CN3CCCCC3Cn3cncn3)no2)c1` (stereo not given) | 12.24% |
| `CCn1c(CC2CCN(C(=O)C3CCOC3)CC2)nn(C)c1=O` (stereo not given) | 3.147% |
| `CCOc1ccc(C(=O)N2CCCC2c2c(C)nn(C)c2OC)cn1` (stereo not given) | 18.58% |
| `CCc1c(C(=O)N2CCN(c3ncccn3)CC2)cnn1C(C)(C)C` | 7.087% |
| `CC(C)N1CCC2(CCCN(c3nccc(C(F)(F)F)n3)C2)CC1` | 3.889% |
| `CCOCc1nccc(-c2ccc(OCC)c(C(=O)O)c2)n1` | 5.495% |
| `O=C(NCC1CC1)c1nc(COc2ccc3c(c2)OCO3)no1` | 15.35% |
| `NC(=O)c1cnc(NC2CCC(c3ccccc3)CC2)c(Cl)c1` (stereo not given) | 17.68% |
| `O=C(Nc1ccccc1)C1CCCN(c2cc(-n3cncn3)ncn2)C1` (stereo not given) | 8.633% |
| `CC(=O)N1CCN(C(=O)c2ccc(-c3cccc(C)c3)[nH]c2=O)CC1` | 8.924% |
| `Cn1ccnc1CN1C[C@H](N2CCOCC2)[C@@H]2OCCC[C@@H]21` | 15.68% |
| `N#Cc1cc(F)ccc1NCc1ccc(Cn2cncn2)cc1` | 17.03% |
| `Cc1cccc(C(=O)N2CC[C@]3(C[C@H](OCc4ccccn4)CO3)C2)c1` | 1.99% |
| `CC(=O)c1cccc(NC(=O)CCn2nc(-c3cccs3)oc2=O)c1` | 11.45% |
| `Cc1cccc(C2CC(=O)Nc3c2c(=O)[nH]n3C(C)C)c1` (stereo not given) | 5.199% |
| `O=C(CN(CC1CCC1)CC(F)(F)F)N1CCOCC1` | 14.63% |
| `CN(CCc1cn[nH]c1)C(=O)C1CC(=O)N(Cc2cccnc2)C1` (stereo not given) | 2.749% |
| `CCn1cc2c(n1)CN(Cc1nccs1)CC2COCC1CC1` (stereo not given) | 16.38% |

Once more, the final 6:

Compound,inhibition
Cc1cccc(C(=O)N2CC[C@]3(C[C@H](OCc4ccccn4)CO3)C2)c1,1.99%
CC(=O)c1cccc(NC(=O)CCn2nc(-c3cccs3)oc2=O)c1,11.45%
Cc1cccc(C2CC(=O)Nc3c2c(=O)[nH]n3C(C)C)c1 (stereo not given),5.199%
O=C(CN(CC1CCC1)CC(F)(F)F)N1CCOCC1,14.63%
CN(CCc1cn[nH]c1)C(=O)C1CC(=O)N(Cc2cccnc2)C1 (stereo not given),2.749%
CCn1cc2c(n1)CN(Cc1nccs1)CC2COCC1CC1 (stereo not given),16.38%